These results are taken from PubChem BioAssay AID330 (DTP/NCI, 2004).

The list does not hold the whole screen: it is rich in T/C values a quarter to a half above the control, in often repeated tests (any T/C) and in doses without a T/C. Further doses and runs are listed elsewhere. T/C: endpoint of the treated group in % of that of the vehicle group. Some entries give survivors of the animals treated and no T/C: the source holds a T/C of zero for them, seemingly a mark for toxic or unscored doses. Some survivor counts are full or nearly so, which does not show that the dose was tolerated: the source hardly ever lists a survival T/C far under the control, and the zero likely stands for such cases as well. Survivors were counted at the toxicity check, usually on the fifth day, unless a day is given; later deaths do not show. Schedule codes are those of the source, read here as Q, the interval in days (D) or hours (H), X, the number of doses. Some doses were run more than once; their values stand side by side, smallest first. For survival time, the PubChem record calls one and a half times the control and up active, and a quarter to a half above the control has no call in these data; cut-offs in other NCI protocols can differ. Some T/C values are followed by the survivors on the day toxicity was checked, most often the fifth; without a count, all were alive then.

The test system of this assay is P388 leukemia ip, CD2F1 mice, survival T/C. As to the kind of experiment: NCI In Vivo Anticancer Drug Screen. Data for tumor model P388 Leukemia (intraperitoneal) in CD2F1 (CDF1) mice. The note with it: T/C endpoint: median survival time, higher T/C = longer survival.
Where [1] appears, read: dose: 120.0 mg/kg/injection, schedule: Q01DX005 (ip), vehicle: saline with Tween-80.
The mark [2] stands for this setting: dose: 240.0 mg/kg/injection, schedule: Q01DX005 (ip), vehicle: saline with Tween-80.
Setting [3] is: dose: 100.0 mg/kg/injection, schedule: Q01DX009 (ip), vehicle: saline with Tween-80.
[4] abbreviates: dose: 100.0 mg/kg/injection, schedule: Q01DX005 (ip), vehicle: Klucel (hydroxypropylcellulose) (HPC).
Setting [5] is: dose: 200.0 mg/kg/injection, schedule: Q01DX005 (ip), vehicle: Klucel (hydroxypropylcellulose) (HPC).
Where [6] appears, read: dose: 12.5 mg/kg/injection, schedule: Q04DX003 (ip), vehicle: saline.
Setting [7] is: dose: 25.0 mg/kg/injection, schedule: Q04DX003 (ip), vehicle: saline.

With `O=C(NC(=O)c1c(F)cccc1F)Nc1cccc(Oc2ncc(Cl)cn2)c1`, the survivor count runs as follows: under setting [1], 6 of 6; under setting [2], 6 of 6.

Take `O=S(=O)(O)c1ccc2cc3nn(-c4ccc(/C=C/c5ccc(-n6nc7cc8ccc(S(=O)(=O)O)cc8cc7n6)cc5S(=O)(=O)O)c(S(=O)(=O)O)c4)nc3cc2c1`: the survivor count (dose: 200.0 mg/kg/injection, schedule: Q01DX009 (ip), vehicle: saline) is on record as 2 of 6.

With `Cc1ccc(S(=O)(=O)C(=S)Sc2ccccc2)cc1`, the survivor count was 1 of 6 under setting [3] and 0 of 6 (dose: 200.0 mg/kg/injection, schedule: Q01DX009 (ip), vehicle: saline with Tween-80).

For the compound `COc1ccc(CSc2ncnc3nc[nH]c23)cc1`, the survivor count under setting [3] is 6 of 6.

Regarding `Cc1ccc(-c2cs/c(=N\N=C3/CSC(=O)N3Cc3ccccc3)n2-c2ccccc2)cc1`, under “dose: 400.0 mg/kg/injection, schedule: Q04DX002 (ip), vehicle: Klucel (hydroxypropylcellulose) (HPC)”, the survivor count is listed as 6 of 6.

As for `COc1cc2nncc(Cl)c2cc1OC`, the survivor count under setting [4] was 3 of 6 and the survivor count under setting [5] was 1 of 6.

With `CC[C@@H](C)[C@@H]1NC(=O)C(NC(=O)C(CC(C)C)NC)C(C)OC(=O)C(Cc2ccc(OC)cc2)N(C)C(=O)C2CCCN2C(=O)C(CC(C)C)NC(=O)C(C)C(=O)C(C(C)C)OC(=O)C[C@H]1O` (stereo partly specified), the T/C is, setting by setting: (dose: 0.5 mg/kg/injection, schedule: Q01DX005 (ip), vehicle: water) 131 % of control; (dose: 1.0 mg/kg/injection, schedule: Q01DX005 (ip), vehicle: water) 140 % of control [5 of 6 alive]; (dose: 2.0 mg/kg/injection, schedule: Q01DX005 (ip), vehicle: saline + alcohol) 138 % of control; (dose: 4.0 mg/kg/injection, schedule: Q01DX005 (ip), vehicle: saline + alcohol) 133 % of control; (dose: 8.0 mg/kg/injection, schedule: Q01DX005 (ip), vehicle: saline + alcohol) 145 % of control.

Turning to `C=CCCN=C(SC)SC`, the survivor count under setting [2] is 1 of 6.

For the compound `O=C(O)CC[n+]1cccc2c1C(=O)C(=O)c1ncccc1-2`, the survivor count (dose: 400.0 mg/kg/injection, schedule: Q04DX002 (ip), vehicle: saline) is listed as 5 of 6.

Consider `COC(=O)c1cc(=O)nc(NN)s1`, for which the survivor count (dose: 200.0 mg/kg/injection, schedule: Q01DX005 (ip), vehicle: saline with Tween-80) is given as 3 of 5.

In the case of `CC[CH2][Sn]([Br])([Br])[CH2]CC`, the T/C reads like this: (dose: 6.25 mg/kg/injection, schedule: Q04DX003 (ip), vehicle: saline) 131 % of control; under setting [6], 127 % of control [4 of 6 alive]; under setting [7], 142 % of control [4 of 6 alive]. In addition, the survivor count reads like this: under setting [6], 3 of 6; under setting [7], 0 of 6; (dose: 100.0 mg/kg/injection, schedule: Q04DX003 (ip), vehicle: saline) 0 of 6; (dose: 200.0 mg/kg/injection, schedule: Q04DX003 (ip), vehicle: saline) 0 of 6; (dose: 400.0 mg/kg/injection, schedule: Q04DX003 (ip), vehicle: saline) 0 of 6.

In the case of `CCN(CC)CCOC(=O)Cc1ccc2c(=O)cc(-c3ccc(C)cc3)oc2c1`, under setting [4], the T/C was 138 % of control. Also, the survivor count under setting [5] is given as 1 of 6.

Turning to `CN(C)CN1C(=O)S/C(=C2\C(=O)N(CN(C)C)c3ccccc32)C1=O`, the T/C reads like this: (dose: 120.0 mg/kg/injection, schedule: Q01DX005 (ip), vehicle: Klucel (hydroxypropylcellulose) (HPC)) 125 % of control; (dose: 240.0 mg/kg/injection, schedule: Q01DX005 (ip), vehicle: Klucel (hydroxypropylcellulose) (HPC)) 126 % of control.

`C/C=C(\CC)C(C#N)O[Si](C)(C)C` (stereo unspecified): the survivor count under setting [2] is 0 of 6.

For `O=C(Cc1cc(-c2ccccc2)nc(=O)[nH]1)c1ccccc1`, the survivor count (dose: 400.0 mg/kg/injection, schedule: Q04DX002 (ip), vehicle: saline with Tween-80) is recorded as 6 of 6.

As for `C#CCSC1=NS(=O)(=O)c2ccccc21`, the survivor count is, setting by setting: (dose: 60.0 mg/kg/injection, schedule: Q01DX005 (ip), vehicle: saline with Tween-80) 4 of 6; under setting [1], 0 of 6 and 6 of 6; under setting [2], 0 of 6.

As to `CCOC(=O)Nc1cc2c(c(N)n1)N=C(c1ccc(F)cc1)CN2`, the T/C is, setting by setting: (dose: 1.3 mg/kg/injection, schedule: Q01DX005 (ip), vehicle: saline with Tween-80) 127 % of control; (dose: 2.0 mg/kg/injection, schedule: Q01DX005 (ip), vehicle: saline with Tween-80) 136 % of control; (dose: 3.0 mg/kg/injection, schedule: Q01DX005 (ip), vehicle: saline with Tween-80) 140 and 149 % of control; (dose: 4.5 mg/kg/injection, schedule: Q01DX005 (ip), vehicle: saline with Tween-80) 138 % of control. Further, the survivor count by setting is: (dose: 6.0 mg/kg/injection, schedule: Q01DX005 (ip), vehicle: saline with Tween-80) 5 of 5; (dose: 12.0 mg/kg/injection, schedule: Q01DX005 (ip), vehicle: saline with Tween-80) 1 of 5.

For `O=C(c1ccccc1)N1C=CC(=Cc2ccccc2)C=C1`, the survivor count is reported as 3 of 6 (dose: 12.5 mg/kg/injection, schedule: Q01DX009 (ip), vehicle: Klucel (hydroxypropylcellulose) (HPC)); 3 of 6 (dose: 25.0 mg/kg/injection, schedule: Q01DX009 (ip), vehicle: Klucel (hydroxypropylcellulose) (HPC)); 1 of 6 (dose: 50.0 mg/kg/injection, schedule: Q01DX009 (ip), vehicle: Klucel (hydroxypropylcellulose) (HPC)); 4 of 6 (dose: 100.0 mg/kg/injection, schedule: Q01DX009 (ip), vehicle: Klucel (hydroxypropylcellulose) (HPC)); 0 of 6 (dose: 200.0 mg/kg/injection, schedule: Q01DX009 (ip), vehicle: Klucel (hydroxypropylcellulose) (HPC)).

`CC1=C(C)C(=O)C(C(C)(C)CC(=O)N(C)/N=N/c2nc[nH]c2C(N)=O)=C(C)C1=O`: the T/C (dose: 50.0 mg/kg/injection, schedule: Q01DX005 (ip), vehicle: saline with Tween-80) was 140 % of control.
